# Data reported in PubChem BioAssay AID445 (National Center for Advancing Translational Sciences (NCATS), 2006).
# The other results are listed elsewhere or left out. Shown are side measurements of this screen, not its main read-out; they come without a call. Compounds called inactive in the main read-out are mostly missing here. Words in brackets tell the shape of the fitted curve; partial curves, single points and poor fits give uncertain potencies.
# Assay: IkB Signaling
# Details: ABC-DLBCL IkBa-CBG/CBR dual luciferase ratio (green luciferase fused to IkBa over red control in OCI-Ly3 lymphoma cells), 4 h
# Method in brief: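 Luminescence ratio of IκBα-fused green versus native red beetle luciferase in OCI-Ly3 cells, 4 h post-doxycycline with compound; red signal alone, scaled from basal (0%) to zero light (-100%), flagged nonspecific or cytotoxic effects.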
# [1] = measured here: IkB-luc green channel
# [2] = measured here: control luc red channel
# [3] = measured here: control luc red channel unless noted
structure (smiles),measurement,setting,value
COC(=O)c1cccc2c1-c1ccccc1/C2=N/O,AC50,[1],"7.94 µM [falling, partial curve]"
same,AC50,[2],"15.8 µM [falling, partial curve]"
CCOC(=O)c1c(S(=O)(=O)N2CCC(C(=O)NCc3cccc(OC)c3)CC2)c(C)n(C)c1C,AC50,[3],"0.00631 µM [rising, full curve, poor fit]"
CCC(C)(C)n1nnnc1C(c1cc2cc(OC)c(OC)cc2[nH]c1=O)N1CCc2ccccc21 (stereo unspecified),AC50,[3],"31.6 µM [falling, single point]"
Cc1cccc(N(C)C(=O)Cn2c(=O)oc3cc(S(=O)(=O)N4CCCCC4)ccc32)c1,AC50,[3],"31.6 µM [falling, single point]"
Cn1ccnc1SCC(=O)Nc1cccc(Br)c1,AC50,[3],"1.58 µM [rising, full curve, poor fit]"
CCN1CCc2c(sc(NC(=O)c3ccc(S(=O)(=O)N4CCCC(C)C4)cc3)c2C(=O)OC)C1 (stereo unspecified),AC50,[3],"12.6 µM [falling, single point]"
Cc1ccccc1Cn1c(CN2CCC(C(=O)NCc3ccc(Cl)cc3)CC2)cc2ccccc21,AC50,[3],"31.6 µM [falling, partial curve]"
Cc1cc(C)c(OCC(=O)N(Cc2ccc(N(C)C)cc2)Cc2ccco2)c(C)c1,AC50,[3],"15.8 µM [falling, partial curve]"
O=C(NCc1ccc2c(c1)OCO2)c1ccc2c(c1)N(Cc1c(F)cccc1Cl)C(=O)c1ccccc1S2,AC50,[3],"2.51 µM [falling, single point]"
CCOc1ccc(NS(=O)(=O)c2ccc3c(c2)NC(=O)CCS3)cc1,AC50,[3],"12.6 µM [falling, partial curve]"
COc1ccc(C2=NC(c3ccccc3)=Nc3ccc(C)cc3N2)cc1,AC50,[3],"25.1 µM [falling, single point]"
O=C1c2ccccc2C(=O)C1(O)O,AC50,[1],"39.8 µM [rising, partial curve]"
same,AC50,[2],"31.6 µM [falling, partial curve]"
COc1ccccc1N1CCN(CC(O)COc2ccc(Cl)c(C)c2)CC1 (stereo unspecified),AC50,[3],"39.8 µM [falling, single point]"
CN1CCN(C(=O)c2ccc3c(c2)N(Cc2ccc(F)cc2)C(=O)c2ccccc2S3(=O)=O)CC1,AC50,[3],"5.01 µM [falling, partial curve, poor fit]"
O=C(CSc1n[nH]c(-c2ccc(F)cc2)n1)N1CCN(c2ccc(F)cc2)CC1,AC50,[3],"39.8 µM [falling, single point]"
Cc1nc2ccn(Cc3ccco3)c(=O)c2cc1C(=O)NCc1ccc(Cl)cc1,AC50,[3],"39.8 µM [falling, single point]"
Cc1ccc(CNC(=O)c2ccc3c(c2)CCN3S(=O)(=O)c2ccc(Br)cc2)cc1,AC50,[3],"6.31 µM [falling, partial curve]"
COc1ccc(N2CC(NC(=O)C3CCCCC3)CC2=O)cc1 (stereo unspecified),AC50,[3],"5.01 µM [rising, partial curve]"
CCn1c(SCC(=O)Nc2cc(C)ccc2F)nnc1-c1ccccc1O,AC50,[3],"25.1 µM [falling, single point]"
c1ccc(-c2noc(-c3cccc4ccccc34)n2)nc1,AC50,[3],"12.6 µM [falling, partial curve]"
N=C1Sc2ccccc2C2=NCCCN12,AC50,[3],"25.1 µM [rising, partial curve, poor fit] [measured here: IkB-luc green channel]"
COc1ccc(N(C(=O)c2ccccc2C)S(=O)(=O)c2ccc(Cl)cc2)cc1,AC50,[3],"3.16 µM [falling, full curve, poor fit]"
Nc1ncc(S(=O)(=O)NCc2ccccc2)cn1,AC50,[3],"0.01 µM [rising, full curve, poor fit]"
COc1cc(S(=O)(=O)NCCc2c(C)[nH]c3ccc(C)cc23)ccc1Br,AC50,[3],"15.8 µM [falling, partial curve]"
O=C(NCCc1nc2ccccc2n1Cc1ccccc1F)c1ccc(F)cc1,AC50,[3],"0.316 µM [falling, partial curve]"
O=C(C1CCC1)N1CCCc2cc(S(=O)(=O)N3CCN(c4cccc(Cl)c4)CC3)ccc21,AC50,[3],"12.6 µM [falling, partial curve, poor fit]"
CCOCc1cc(CN2CCN(c3cccc(C(F)(F)F)c3)CC2)c(O)c2ncccc12,AC50,[3],"5.01 µM [falling, partial curve]"
c1ccc(-c2nnc3n2NC(c2ccc4c(c2)OCO4)S3)cc1 (stereo unspecified),AC50,[3],"7.94 µM [falling, partial curve]"
COc1ccc(OC)c(S(=O)(=O)Nc2ccc(O)c3ccccc23)c1,AC50,[3],"2 µM [falling, full curve]"
COc1ccccc1NC(=O)c1cc2ccc(O)cc2o/c1=N\O,AC50,[3],"7.94 µM [falling, partial curve]"
CCOc1ccccc1NC(=O)COC(=O)CC(C)(C)CC1=NS(=O)(=O)c2ccccc2N1,AC50,[3],"20 µM [falling, partial curve]"
Cc1onc(-c2ccccc2Cl)c1C(=O)Oc1ccc(Cl)cc1Cl,AC50,[3],"39.8 µM [falling, single point]"
COc1ccc(CCN2C(=O)c3[nH]nc(-c4ccccc4O)c3C2c2cccc(O)c2)cc1OC (stereo unspecified),AC50,[3],"25.1 µM [falling, single point]"
Cc1csc(NC(=O)Nc2ccc(Cl)cc2)n1,AC50,[3],"10 µM [falling, partial curve]"
CCOC(=O)N1CCc2c(sc3c2c(=O)n(Cc2ccccc2)c(=O)n3CC(=O)Nc2ccc(F)cc2)C1,AC50,[3],"31.6 µM [falling, partial curve]"
O=C(Nc1cc(Cl)cc(Cl)c1)c1cc(S(=O)(=O)NC2CCCC2)ccc1F,AC50,[3],"15.8 µM [falling, partial curve]"
Cc1cccc(N2CCN(C(=O)C3CCN(C(=O)c4cc5sccc5n4C)CC3)CC2C)c1 (stereo unspecified),AC50,[3],"20 µM [falling, partial curve]"
COc1ccc(CN(C)c2ccc(-c3nc(-c4ccc(OC)c(OC)c4)no3)cc2[N+](=O)[O-])cc1,AC50,[3],"7.94 µM [falling, partial curve]"
CCOc1ccc2nc(Cl)c(C3CC(c4ccc(C)cc4)=NN3C(=O)CCC(=O)O)cc2c1 (stereo unspecified),AC50,[3],"3.98 µM [falling, full curve]"

# Part of the list above, as tab-separated lines:
structure (smiles)	measurement	setting	value
COc1ccc(CN(C)c2ccc(-c3nc(-c4ccc(OC)c(OC)c4)no3)cc2[N+](=O)[O-])cc1	AC50	[3]	7.94 µM [falling, partial curve]
CCOc1ccc2nc(Cl)c(C3CC(c4ccc(C)cc4)=NN3C(=O)CCC(=O)O)cc2c1 (stereo unspecified)	AC50	[3]	3.98 µM [falling, full curve]
